In article PMC10405849, “Soluble CD93 lectin-like domain sequesters HMGB1 to ameliorate inflammatory diseases” (Theranostics, 2023):
Results are given in words; binding and its absence hold for the method and conditions named. Some entries that bind do so weakly or less than the wild type.

Protein sequences, listed by entry. Tags and fused reporters are not part of them. Residues count along the entry.
UniProt Q15109, residues 23-342: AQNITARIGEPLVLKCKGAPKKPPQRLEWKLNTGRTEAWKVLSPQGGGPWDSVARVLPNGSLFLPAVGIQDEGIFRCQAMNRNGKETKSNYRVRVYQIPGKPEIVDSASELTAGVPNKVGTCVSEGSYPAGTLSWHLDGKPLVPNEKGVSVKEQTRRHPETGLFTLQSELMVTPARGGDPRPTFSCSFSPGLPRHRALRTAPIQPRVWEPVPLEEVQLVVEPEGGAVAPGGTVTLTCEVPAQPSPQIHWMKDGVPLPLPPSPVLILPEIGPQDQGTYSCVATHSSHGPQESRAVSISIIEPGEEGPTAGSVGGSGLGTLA

Experiments:
[1] = molecular target: soluble RAGE (sRAGE), containing the extracellular ligand-binding domain of RAGE (UniProt Q15109); assay: ELISA; competitive assay; sRAGE (10 nM) coated on the plate; HMGB1 with indicated concentrations of rCD93D123, rCD93D1, rCD93D23 or BSA in reaction buffer overnight at 4 °C; detected with anti-HMGB1 antibody; both purified
[2] = molecular target: soluble recombinant human CD93 ectodomain protein rCD93D23 (Val258-Lys580) (human) (UniProt Q9NPY3); assay: far-Western, overlay or dot blot; rCD93D1, rCD93D23, rCD93D123 and BSA separated by 10% SDS-PAGE, transferred to PVDF membrane, hybridized with HMGB1 (0.5 μg/ml) in PBS overnight at 4 °C; detected with anti-HMGB1 antibody; both purified
[3] = molecular target: T1, soluble recombinant human CD93 lectin-like domain rCD93D1 (Thr22-Gly177) (human) (UniProt Q9NPY3); assay: as above
T1 sequence: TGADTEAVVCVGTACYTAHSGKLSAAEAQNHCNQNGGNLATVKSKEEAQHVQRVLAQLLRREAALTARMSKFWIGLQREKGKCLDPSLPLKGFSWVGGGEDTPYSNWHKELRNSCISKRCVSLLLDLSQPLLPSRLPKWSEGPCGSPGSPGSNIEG

[4] = molecular target: T1, soluble recombinant human CD93 lectin-like domain rCD93D1 (Thr22-Gly177) (human); assay: ELISA; solid-phase binding assay; rCD93D123, rCD93D1, rCD93D23 or BSA coated on the plate; indicated doses of HMGB1 in 1 mg/ml BSA, 20 mM Tris-HCl, 0.15 M NaCl, 5 mM CaCl2 overnight at 4 °C; detected with anti-HMGB1 antibody; both purified

B1: recombinant human high-mobility group box 1 (HMGB1) protein (natural protein, UniProt P09429 1-215, looked up)
chain: MGKGDPKKPRGKMSSYAFFVQTCREEHKKKHPDASVNFSEFSKKCSERWKTMSAKEKGKFEDMAKADKARYEREMKTYIPPKGETKKKFKDPNAPKRPPSAFFLFCSEYRPKIKGEHPGLSIGDVAKKLGEMWNNTAADDKQPYEKKAAKLKEKYEKDIAAYRAKGKPDAAKKGVVKAEKSKKKKEEEEDEEDEEDEEEEEDEEDEDEEEDDDDE
notes: High-mobility group box 1 protein, human, recombinant; No catalogue number is printed; source: bought: R&D Systems
In the case of B1, the binding [1] is reported as “binds”, the binding [2] is reported as “binds weakly” and the binding [3] is reported as “binds”. The binding [4] was “binds”.
